Reference: article doi:10.1101/2023.10.26.562393
No constants are given. Whether binding was seen depends on the method and setting. Binding seen in cells or lysates may run through a third protein. Some binding calls cover weakened binding; strength is not graded here. For part of these data: Tags and fused reporters may be left off the sequences shown.

Sequences of proteins named here, by UniProt entry; tags and fusion partners are left off. A change or cut given only in a name is not applied to a line headed by its entry.
UniProt Q9UQ84: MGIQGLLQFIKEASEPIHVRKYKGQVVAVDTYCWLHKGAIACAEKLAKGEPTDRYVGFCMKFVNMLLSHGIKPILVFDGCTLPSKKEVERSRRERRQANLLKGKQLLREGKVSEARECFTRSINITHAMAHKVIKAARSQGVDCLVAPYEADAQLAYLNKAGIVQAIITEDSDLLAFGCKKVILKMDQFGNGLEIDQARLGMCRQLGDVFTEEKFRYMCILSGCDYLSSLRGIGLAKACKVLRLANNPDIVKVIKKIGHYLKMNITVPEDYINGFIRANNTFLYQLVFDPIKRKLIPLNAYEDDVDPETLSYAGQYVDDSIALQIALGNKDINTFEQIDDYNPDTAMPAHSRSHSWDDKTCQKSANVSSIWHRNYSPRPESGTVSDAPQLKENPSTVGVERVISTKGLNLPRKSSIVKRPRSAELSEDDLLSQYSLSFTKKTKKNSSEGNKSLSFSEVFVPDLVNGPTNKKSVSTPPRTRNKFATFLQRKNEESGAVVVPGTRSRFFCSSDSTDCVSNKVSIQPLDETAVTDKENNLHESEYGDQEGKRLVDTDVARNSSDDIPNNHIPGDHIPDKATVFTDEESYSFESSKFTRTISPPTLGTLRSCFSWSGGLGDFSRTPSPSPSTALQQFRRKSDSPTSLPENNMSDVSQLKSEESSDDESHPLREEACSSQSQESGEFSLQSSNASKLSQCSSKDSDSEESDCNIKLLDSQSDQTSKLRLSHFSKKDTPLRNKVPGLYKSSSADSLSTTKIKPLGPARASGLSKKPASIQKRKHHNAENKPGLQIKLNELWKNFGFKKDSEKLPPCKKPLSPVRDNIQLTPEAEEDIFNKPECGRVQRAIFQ

Tests used:
Assay in all cases: co-IP
Flag-tagged RRM2 WT = target: T1, Flag-tagged RRM2 WT (UniProt P31350)
T1 sequence: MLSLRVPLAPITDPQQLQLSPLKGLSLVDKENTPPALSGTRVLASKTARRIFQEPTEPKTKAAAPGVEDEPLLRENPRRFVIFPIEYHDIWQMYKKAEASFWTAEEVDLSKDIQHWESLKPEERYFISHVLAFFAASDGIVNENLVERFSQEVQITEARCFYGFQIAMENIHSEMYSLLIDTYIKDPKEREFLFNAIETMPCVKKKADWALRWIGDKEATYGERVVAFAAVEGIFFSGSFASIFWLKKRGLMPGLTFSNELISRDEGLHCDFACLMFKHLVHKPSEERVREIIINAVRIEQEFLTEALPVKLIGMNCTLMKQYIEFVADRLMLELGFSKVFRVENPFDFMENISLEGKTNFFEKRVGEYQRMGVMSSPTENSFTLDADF

Flag-tagged RRM2 Q53A = target: T2, Flag-tagged RRM2 Q53A (UniProt P31350)
T2 sequence: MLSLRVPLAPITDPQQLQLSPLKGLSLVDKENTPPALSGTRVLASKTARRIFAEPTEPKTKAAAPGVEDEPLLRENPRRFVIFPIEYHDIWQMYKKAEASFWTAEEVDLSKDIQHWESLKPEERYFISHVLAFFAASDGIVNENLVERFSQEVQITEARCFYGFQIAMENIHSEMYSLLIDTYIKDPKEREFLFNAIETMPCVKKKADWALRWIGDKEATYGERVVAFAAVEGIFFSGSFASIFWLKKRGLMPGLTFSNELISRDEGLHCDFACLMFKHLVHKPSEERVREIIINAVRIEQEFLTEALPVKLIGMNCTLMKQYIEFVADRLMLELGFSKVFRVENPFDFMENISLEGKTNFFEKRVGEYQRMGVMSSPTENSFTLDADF

Flag-tagged RRM2 F52A = target: T3, Flag-tagged RRM2 F52A (UniProt P31350)
T3 sequence: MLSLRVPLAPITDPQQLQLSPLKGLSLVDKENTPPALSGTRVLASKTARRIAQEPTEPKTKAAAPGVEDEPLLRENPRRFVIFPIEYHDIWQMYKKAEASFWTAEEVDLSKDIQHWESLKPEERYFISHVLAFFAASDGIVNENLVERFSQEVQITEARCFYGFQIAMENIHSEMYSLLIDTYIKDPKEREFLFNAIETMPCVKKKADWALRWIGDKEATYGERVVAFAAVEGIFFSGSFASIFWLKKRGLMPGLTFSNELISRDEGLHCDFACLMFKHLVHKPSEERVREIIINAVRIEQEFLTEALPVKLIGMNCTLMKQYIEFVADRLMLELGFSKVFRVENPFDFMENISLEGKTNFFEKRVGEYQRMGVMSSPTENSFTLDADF

GFP-EXO1 WT = GFP-EXO1 WT (UniProt Q9UQ84)
GFP-EXO1 I844A = GFP-EXO1 I844A (UniProt Q9UQ84)
Flag-tagged RRM2 I51A = target: T4, Flag-tagged RRM2 I51A (UniProt P31350)
T4 sequence: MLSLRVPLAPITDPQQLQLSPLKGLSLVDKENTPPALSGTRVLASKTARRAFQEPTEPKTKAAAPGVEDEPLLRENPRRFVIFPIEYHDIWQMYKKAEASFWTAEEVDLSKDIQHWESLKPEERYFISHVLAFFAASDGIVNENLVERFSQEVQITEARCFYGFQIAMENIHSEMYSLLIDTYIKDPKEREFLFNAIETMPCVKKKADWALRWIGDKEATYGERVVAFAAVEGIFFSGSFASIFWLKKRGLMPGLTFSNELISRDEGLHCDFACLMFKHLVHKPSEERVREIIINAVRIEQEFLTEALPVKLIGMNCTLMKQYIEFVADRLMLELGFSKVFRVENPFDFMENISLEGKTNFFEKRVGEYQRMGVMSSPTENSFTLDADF

[1] = target: EXO1 WT (construct of Figure 4C) (UniProt Q9UQ84)
Flag-tagged RRM2 R49A = target: T5, Flag-tagged RRM2 R49A (UniProt P31350)
T5 sequence: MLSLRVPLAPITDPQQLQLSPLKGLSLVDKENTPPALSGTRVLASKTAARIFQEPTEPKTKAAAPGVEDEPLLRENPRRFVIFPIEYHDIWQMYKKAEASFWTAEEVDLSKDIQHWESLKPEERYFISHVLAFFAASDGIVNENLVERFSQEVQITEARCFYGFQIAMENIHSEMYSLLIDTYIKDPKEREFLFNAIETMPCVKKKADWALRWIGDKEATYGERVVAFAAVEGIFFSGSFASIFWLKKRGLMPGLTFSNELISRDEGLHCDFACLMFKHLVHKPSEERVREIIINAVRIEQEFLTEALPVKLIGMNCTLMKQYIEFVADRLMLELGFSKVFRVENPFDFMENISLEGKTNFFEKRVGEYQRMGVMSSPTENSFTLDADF

GFP-EXO1 R842A = GFP-EXO1 R842A (UniProt Q9UQ84)
GFP-EXO1 T824A = GFP-EXO1 T824A (UniProt Q9UQ84)
GFP-EXO1 F845A = GFP-EXO1 F845A (UniProt Q9UQ84)
GFP-EXO1 Q846A = GFP-EXO1 Q846A (UniProt Q9UQ84)

B1: endogenous cyclin F (HEK293T) (protein, UniProt P41002 1-786)
chain: MGSGGVVHCRCAKCFCYPTKRRIRRRPRNLTILSLPEDVLFHILKWLSVEDILAVRAVHSQLKDLVDNHASVWACASFQELWPSPGNLKLFERAAEKGNFEAAVKLGIAYLYNEGLSVSDEARAEVNGLKASRFFSLAERLNVGAAPFIWLFIRPPWSVSGSCCKAVVHESLRAECQLQRTHKASILHCLGRVLSLFEDEEKQQQAHDLFEEAAHQGCLTSSYLLWESDRRTDVSDPGRCLHSFRKLRDYAAKGCWEAQLSLAKACANANQLGLEVRASSEIVCQLFQASQAVSKQQVFSVQKGLNDTMRYILIDWLVEVATMKDFTSLCLHLTVECVDRYLRRRLVPRYRLQLLGIACMVICTRFISKEILTIREAVWLTDNTYKYEDLVRMMGEIVSALEGKIRVPTVVDYKEVLLTLVPVELRTQHLCSFLCELSLLHTSLSAYAPARLAAAALLLARLTHGQTQPWTTQLWDLTGFSYEDLIPCVLSLHKKCFHDDAPKDYRQVSLTAVKQRFEDKRYGEISQEEVLSYSQLCAALGVTQDSPDPPTFLSTGEIHAFLSSPSGRRTKRKRENSLQEDRGSFVTTPTAELSSQEETLLGSFLDWSLDCCSGYEGDQESEGEKEGDVTAPSGILDVTVVYLNPEQHCCQESSDEEACPEDKGPQDPQALALDTQIPATPGPKPLVRTSREPGKDVTTSGYSSVSTASPTSSVDGGLGALPQPTSVLSLDSDSHTQPCHHQARKSCLQCRPPSPPESSVPQQQVKRINLCIHSEEEDMNLGLVRL
Question: Which binding (Flag-tagged RRM2 WT) does the source give for B1 here?
Answer: Its binding is “binds”.

Question: What about the binding (Flag-tagged RRM2 Q53A) of the same binder?
Answer: Its binding is “binds”.

Question: And the binding (Flag-tagged RRM2 F52A)?
Answer: Its binding is “no binding”.

Question: And the binding (GFP-EXO1 WT)?
Answer: Its binding is “binds”.

Question: What about the binding (GFP-EXO1 I844A) of the same binder?
Answer: Its binding is “no binding”.

Question: And the binding (Flag-tagged RRM2 I51A)?
Answer: The binding was “no binding”.

Question: What about the binding [1] of the same binder?
Answer: Its binding is “binds”.

Question: And the binding (Flag-tagged RRM2 R49A)?
Answer: The binding was “no binding”.

Question: And the binding (GFP-EXO1 R842A)?
Answer: Its binding is “no binding”.

Question: And the binding (GFP-EXO1 T824A)?
Answer: Its binding is “no binding”.

Question: What about the binding (GFP-EXO1 F845A) of the same binder?
Answer: The binding was “no binding”.

Question: What about the binding (GFP-EXO1 Q846A) of the same binder?
Answer: The binding was “binds”.
